Data as given in PMC10323252.
Like-named read-outs stand apart in the source and are kept apart here. No constants are given. Whether binding was seen depends on the method and setting. In cells and extracts the contact can be indirect. Here binding means that the protein was enriched with, or labelled near, the bait; the list need not be complete. For part of these data: Tags and fused reporters may be left off the sequences shown.

The chains behind the UniProt entries cited, without tags or fusion partners.
UniProt P62491: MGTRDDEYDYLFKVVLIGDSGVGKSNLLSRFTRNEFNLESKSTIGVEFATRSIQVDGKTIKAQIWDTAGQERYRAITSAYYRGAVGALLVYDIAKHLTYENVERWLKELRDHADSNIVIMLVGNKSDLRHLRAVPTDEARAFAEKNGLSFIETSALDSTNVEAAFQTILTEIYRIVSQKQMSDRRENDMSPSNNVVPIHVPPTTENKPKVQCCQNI
UniProt P20338: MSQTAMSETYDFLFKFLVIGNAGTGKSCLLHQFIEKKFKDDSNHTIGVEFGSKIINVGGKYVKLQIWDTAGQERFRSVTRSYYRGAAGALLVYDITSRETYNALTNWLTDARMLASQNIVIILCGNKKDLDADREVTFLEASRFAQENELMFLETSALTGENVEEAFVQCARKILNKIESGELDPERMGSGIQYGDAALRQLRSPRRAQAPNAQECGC
UniProt Q9UBF8: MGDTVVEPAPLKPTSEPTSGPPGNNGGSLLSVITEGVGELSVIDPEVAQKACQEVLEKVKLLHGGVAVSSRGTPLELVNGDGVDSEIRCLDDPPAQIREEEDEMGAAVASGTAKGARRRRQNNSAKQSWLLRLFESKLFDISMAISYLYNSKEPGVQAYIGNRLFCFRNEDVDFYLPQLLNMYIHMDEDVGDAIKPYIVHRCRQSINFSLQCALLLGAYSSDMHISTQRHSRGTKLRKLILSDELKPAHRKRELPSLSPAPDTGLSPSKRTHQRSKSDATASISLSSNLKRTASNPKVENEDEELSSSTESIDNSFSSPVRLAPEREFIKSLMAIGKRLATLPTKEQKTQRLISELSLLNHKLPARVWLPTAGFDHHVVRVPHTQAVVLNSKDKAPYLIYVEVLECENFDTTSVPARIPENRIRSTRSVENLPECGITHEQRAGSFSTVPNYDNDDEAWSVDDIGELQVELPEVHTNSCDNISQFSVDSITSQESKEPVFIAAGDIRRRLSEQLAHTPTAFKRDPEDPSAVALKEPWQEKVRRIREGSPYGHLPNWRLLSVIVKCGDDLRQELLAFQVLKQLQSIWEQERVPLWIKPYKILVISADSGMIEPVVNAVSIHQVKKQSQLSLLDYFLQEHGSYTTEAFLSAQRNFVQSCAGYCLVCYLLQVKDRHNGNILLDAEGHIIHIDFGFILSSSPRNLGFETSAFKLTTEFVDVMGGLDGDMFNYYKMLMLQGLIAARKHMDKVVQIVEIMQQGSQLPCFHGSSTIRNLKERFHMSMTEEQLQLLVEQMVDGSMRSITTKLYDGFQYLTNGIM
UniProt Q7L804: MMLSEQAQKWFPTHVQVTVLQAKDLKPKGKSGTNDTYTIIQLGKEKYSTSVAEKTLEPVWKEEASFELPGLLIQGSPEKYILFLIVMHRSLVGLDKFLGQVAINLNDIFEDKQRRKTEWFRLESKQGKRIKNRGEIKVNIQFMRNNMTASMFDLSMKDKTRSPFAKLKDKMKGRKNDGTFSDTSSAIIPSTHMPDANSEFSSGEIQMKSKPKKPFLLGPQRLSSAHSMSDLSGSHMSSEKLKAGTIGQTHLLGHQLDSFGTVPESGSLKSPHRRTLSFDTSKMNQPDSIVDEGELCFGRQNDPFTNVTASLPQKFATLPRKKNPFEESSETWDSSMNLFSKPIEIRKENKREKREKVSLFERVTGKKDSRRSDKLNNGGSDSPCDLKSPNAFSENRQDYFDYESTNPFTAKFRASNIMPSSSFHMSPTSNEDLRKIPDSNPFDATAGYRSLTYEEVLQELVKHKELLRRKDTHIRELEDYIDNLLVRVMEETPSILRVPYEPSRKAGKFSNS
UniProt Q14677: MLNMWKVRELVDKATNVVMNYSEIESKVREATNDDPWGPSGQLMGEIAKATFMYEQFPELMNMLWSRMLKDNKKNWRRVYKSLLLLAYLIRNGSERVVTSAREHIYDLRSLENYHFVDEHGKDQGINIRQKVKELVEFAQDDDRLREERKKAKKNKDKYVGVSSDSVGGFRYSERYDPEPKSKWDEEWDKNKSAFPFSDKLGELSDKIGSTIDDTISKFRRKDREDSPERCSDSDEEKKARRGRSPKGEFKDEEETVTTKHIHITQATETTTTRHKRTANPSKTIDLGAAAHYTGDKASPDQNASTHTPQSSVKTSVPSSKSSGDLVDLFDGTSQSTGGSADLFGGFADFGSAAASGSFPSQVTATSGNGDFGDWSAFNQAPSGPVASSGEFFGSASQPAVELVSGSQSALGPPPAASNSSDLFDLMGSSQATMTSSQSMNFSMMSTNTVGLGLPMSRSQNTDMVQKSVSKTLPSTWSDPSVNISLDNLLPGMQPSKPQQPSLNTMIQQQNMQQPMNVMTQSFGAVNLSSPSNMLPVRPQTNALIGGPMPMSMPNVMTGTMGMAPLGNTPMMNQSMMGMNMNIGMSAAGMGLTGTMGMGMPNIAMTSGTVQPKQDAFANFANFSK
UniProt Q641Q2: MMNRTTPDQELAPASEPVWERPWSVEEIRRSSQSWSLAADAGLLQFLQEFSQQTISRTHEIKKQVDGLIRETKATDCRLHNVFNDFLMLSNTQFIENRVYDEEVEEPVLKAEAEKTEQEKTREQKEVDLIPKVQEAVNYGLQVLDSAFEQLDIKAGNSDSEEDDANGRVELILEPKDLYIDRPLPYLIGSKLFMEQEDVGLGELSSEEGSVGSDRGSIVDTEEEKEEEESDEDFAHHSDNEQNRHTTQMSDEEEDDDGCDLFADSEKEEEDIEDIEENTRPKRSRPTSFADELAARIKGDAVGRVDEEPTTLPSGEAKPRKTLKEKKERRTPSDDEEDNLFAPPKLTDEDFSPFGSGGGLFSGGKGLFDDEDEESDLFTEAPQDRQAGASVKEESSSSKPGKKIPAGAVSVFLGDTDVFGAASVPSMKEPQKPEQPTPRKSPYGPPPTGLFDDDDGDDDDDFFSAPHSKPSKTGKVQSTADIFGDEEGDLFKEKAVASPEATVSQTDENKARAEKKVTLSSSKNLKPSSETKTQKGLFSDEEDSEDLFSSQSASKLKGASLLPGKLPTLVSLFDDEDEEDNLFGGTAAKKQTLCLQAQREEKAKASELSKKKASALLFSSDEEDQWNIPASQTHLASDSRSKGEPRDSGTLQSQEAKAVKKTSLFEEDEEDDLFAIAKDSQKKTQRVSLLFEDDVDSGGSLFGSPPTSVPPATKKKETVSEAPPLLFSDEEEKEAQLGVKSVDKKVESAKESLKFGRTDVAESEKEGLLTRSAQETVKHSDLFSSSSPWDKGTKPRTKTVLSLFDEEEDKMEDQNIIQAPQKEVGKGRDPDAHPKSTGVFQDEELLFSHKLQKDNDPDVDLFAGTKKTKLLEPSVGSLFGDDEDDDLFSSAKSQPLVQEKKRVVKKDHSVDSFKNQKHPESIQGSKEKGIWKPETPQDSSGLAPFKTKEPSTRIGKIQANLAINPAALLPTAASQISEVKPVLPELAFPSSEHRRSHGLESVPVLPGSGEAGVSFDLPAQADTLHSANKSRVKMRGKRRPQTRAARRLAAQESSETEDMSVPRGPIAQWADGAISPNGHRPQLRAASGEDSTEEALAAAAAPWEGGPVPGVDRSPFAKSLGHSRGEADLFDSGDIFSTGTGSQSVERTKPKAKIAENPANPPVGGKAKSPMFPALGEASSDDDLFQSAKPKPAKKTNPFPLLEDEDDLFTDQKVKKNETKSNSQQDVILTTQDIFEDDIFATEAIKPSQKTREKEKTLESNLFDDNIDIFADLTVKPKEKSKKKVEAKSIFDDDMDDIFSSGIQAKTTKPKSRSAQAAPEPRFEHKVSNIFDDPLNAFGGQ
UniProt Q13596: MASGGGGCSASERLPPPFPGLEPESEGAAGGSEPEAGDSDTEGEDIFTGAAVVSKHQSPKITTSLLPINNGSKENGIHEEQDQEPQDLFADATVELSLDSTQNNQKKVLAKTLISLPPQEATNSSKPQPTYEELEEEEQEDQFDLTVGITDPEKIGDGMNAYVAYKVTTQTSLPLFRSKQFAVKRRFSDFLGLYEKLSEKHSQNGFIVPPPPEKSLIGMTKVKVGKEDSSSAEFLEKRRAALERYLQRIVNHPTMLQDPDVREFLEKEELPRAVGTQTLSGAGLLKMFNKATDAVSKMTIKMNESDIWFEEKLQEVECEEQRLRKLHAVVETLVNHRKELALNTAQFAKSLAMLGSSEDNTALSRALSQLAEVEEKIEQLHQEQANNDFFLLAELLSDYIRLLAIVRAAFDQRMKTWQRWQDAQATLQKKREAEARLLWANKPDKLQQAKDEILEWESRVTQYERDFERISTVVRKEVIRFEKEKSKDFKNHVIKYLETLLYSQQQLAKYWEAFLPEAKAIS
UniProt P63027: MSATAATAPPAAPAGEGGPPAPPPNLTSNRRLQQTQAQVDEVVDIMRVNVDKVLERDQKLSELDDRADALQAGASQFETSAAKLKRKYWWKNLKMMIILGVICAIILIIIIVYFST
UniProt O00161: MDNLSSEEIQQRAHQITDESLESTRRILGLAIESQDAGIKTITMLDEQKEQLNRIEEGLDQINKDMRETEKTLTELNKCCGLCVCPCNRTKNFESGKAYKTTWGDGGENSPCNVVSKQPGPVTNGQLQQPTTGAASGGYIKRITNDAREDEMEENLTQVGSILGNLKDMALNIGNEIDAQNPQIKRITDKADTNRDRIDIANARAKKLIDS
UniProt Q5VZ89: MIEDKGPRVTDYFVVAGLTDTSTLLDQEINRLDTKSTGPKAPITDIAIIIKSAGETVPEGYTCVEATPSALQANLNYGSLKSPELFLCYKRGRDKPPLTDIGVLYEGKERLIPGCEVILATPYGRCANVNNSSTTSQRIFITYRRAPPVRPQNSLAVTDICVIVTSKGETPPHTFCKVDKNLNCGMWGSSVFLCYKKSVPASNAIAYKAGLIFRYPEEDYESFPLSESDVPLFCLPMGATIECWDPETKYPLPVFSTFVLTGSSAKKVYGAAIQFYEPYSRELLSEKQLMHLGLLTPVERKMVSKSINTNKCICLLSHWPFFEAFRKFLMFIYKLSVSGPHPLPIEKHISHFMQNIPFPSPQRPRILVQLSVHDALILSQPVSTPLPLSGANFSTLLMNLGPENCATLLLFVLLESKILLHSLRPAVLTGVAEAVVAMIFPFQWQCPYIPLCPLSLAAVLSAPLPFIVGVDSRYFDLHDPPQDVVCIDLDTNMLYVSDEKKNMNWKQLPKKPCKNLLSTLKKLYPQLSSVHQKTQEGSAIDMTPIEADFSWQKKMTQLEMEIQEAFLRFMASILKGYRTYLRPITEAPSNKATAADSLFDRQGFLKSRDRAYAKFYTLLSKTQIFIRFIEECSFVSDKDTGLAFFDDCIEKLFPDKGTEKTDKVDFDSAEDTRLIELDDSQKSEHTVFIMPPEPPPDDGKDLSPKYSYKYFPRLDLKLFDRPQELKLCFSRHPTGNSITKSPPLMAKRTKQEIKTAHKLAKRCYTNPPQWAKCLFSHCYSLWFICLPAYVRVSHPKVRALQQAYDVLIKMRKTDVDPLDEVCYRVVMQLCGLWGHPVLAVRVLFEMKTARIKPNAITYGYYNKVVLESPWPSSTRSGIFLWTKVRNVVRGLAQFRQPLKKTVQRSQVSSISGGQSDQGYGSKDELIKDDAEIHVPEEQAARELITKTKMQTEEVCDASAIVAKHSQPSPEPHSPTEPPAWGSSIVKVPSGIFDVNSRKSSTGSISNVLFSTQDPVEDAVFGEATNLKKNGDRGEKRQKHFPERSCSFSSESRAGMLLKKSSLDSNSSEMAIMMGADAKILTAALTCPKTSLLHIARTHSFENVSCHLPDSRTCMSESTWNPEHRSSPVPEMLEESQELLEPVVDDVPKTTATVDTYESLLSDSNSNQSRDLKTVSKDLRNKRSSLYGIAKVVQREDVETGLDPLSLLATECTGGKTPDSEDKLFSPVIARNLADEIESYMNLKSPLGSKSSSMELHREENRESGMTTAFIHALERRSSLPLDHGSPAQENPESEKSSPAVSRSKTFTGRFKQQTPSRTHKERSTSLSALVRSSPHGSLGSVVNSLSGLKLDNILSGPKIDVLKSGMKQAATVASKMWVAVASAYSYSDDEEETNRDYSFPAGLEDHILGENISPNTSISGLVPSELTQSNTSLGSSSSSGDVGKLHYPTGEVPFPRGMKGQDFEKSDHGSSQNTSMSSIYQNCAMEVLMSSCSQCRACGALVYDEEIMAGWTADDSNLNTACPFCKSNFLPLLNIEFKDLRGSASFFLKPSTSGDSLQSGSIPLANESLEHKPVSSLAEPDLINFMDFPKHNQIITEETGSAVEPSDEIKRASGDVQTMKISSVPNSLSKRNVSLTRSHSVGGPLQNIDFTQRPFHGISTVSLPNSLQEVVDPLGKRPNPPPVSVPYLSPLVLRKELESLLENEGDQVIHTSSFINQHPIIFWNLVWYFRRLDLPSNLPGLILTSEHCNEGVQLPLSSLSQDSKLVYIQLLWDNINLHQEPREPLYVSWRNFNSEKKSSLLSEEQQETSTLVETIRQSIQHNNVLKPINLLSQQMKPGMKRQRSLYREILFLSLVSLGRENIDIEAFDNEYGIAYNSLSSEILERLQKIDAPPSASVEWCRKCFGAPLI

T1: mycBirA*–Rab25 (UniProt P57735)
T1 sequence: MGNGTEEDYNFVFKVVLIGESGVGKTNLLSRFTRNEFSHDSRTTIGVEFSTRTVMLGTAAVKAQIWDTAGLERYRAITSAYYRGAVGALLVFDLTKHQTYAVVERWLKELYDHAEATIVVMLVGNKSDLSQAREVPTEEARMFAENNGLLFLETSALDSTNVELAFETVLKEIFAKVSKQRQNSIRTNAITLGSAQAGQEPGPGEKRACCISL


Legend:
Experiment in all cases: proximity labelling; BioID: A2780 cells stably expressing mycBirA*-Rab baits (mycBirA* alone as control), 1 uM biotin for 16 h; lysis in 0.4% SDS, 500 mM NaCl buffer; streptavidin microspheres; LC-MS/MS with label-free quantification, four replicates; high-confidence list by SAINTexpress (BFDR<=0.05), longlist by >2-fold enrichment; biotin-modified peptides also scored
[1] = biological target: mycBirA*–Rab11a (UniProt P62491)
[2] = biological target: T1, mycBirA*–Rab25
[3] = biological target: mycBirA*–Rab11a (UniProt P62491); remark: listed apart in the source
[4] = biological target: T1, mycBirA*–Rab25; remark: listed apart in the source
[5] = biological target: mycBirA*–Rab4a (UniProt P20338)

Row | Molecule | binding [1] | binding [2] | also measured
1 | PI4KB (from UniProt Q9UBF8 1-816) | binds |  | 
2 | Rab11FIP2 (from UniProt Q7L804 1-512) | binds | binds | 
3 | clathrin interactor 1 (from UniProt Q14677 1-625) | binds | binds | 
4 | ARFGAP1 (from UniProt Q8N6T3 1-406) | binds | binds | 
5 | FAM21A (from UniProt Q641Q2 1-1341) | binds | binds | 
6 | SNX1 (from UniProt Q13596 1-522) | binds |  | 
7 | ARFGEF1 (from UniProt Q9Y6D6 1-1849) | binds |  | 
8 | WDR44 (protein, UniProt Q5JSH3 1-913) MASESDTEEFYDAPEDVHLGGGYPVGSPGKVGLSTFKETENTAYKVGNESPVQELKQDVSKKIIESIIEESQKVLQLEDDSLDSKGKELSDQATASPIVARTDLSNIPGLLAIDQVLPEESQKAESQNTFEETELELKKCFPSDETCEKPVDETTKLTQTSSTEQLNVLETETEVLNKEAVEVKGGGDVLEPVSSDSLSTKDFAAVEEVAPAKPPRHLTPEPDIVASTKKPVPARPPPPTNFPPPRPPPPSRPAPPPRKRKSELEFETLKTPDIDVPKENITSDSLLTASMASESTVKDSQPSLDLASATSGDKIVTAQENGKAPDGQTVAGEVMGPQRPRSNSGRELTDEEILASVMIKNLDTGEEIPLSLAEEKLPTGINPLTLHIMRRTKEYVSNDAAQSDDEEKLQSQPTDTDGGRLKQKTTQLKKFLGKSVKRAKHLAEEYGERAINKVKSVRDEVFHTDQDDPSSSDDEGMPYTRPVKFKAAHGFKGPYDFDQIKVVQDLSGEHMGAVWTMKFSHCGRLLASAGQDNVVRIWALKNAFDYFNNMRMKYNTEGRVSPSPSQESLSSSKSDTDTGVCSGTDEDPDDKNAPFRQRPFCKYKGHTADLLDLSWSKNYFLLSSSMDKTVRLWHISRRECLCCFQHIDFVTAIAFHPRDDRYFLSGSLDGKLRLWNIPDKKVALWNEVDGQTKLITAANFCQNGKYAVIGTYDGRCIFYDTEHLKYHTQIHVRSTRGRNKVGRKITGIEPLPGENKILVTSNDSRIRLYDLRDLSLSMKYKGYVNSSSQIKASFSHDFTYLVSGSEDKYVYIWSTYHDLSKFTSVRRDRNDFWEGIKAHNAVVTSAIFAPNPSLMLSLDVQSEKSEGNEKSEDAEVLDATPSGIMKTDNTEVLLSADFTGAIKVFVNKRKNVS |  |  | binding [3]: binds; binding [4]: binds
9 | GRIPAP1 (protein, UniProt Q4V328 1-841) MAQALSEEEFQRMQAQLLELRTNNYQLSDELRKNGVELTSLRQKVAYLDKEFSKAQKALSKSKKAQEVEVLLSENEMLQAKLHSQEEDFRLQNSTLMAEFSKLCSQMEQLEQENQQLKEGAAGAGVAQAGPLVDGELLRLQAENTALQKNVAALQERYGKEAGKFSAVSEGQGDPPGGLAPTVLAPMPLAEVELKWEMEKEEKRLLWEQLQGLESSKQAETSRLQEELAKLSEKLKKKQESFCRLQTEKETLFNDSRNKIEELQQRKEADHKAQLARTQKLQQELEAANQSLAELRDQRQGERLEHAAALRALQDQVSIQSADAQEQVEGLLAENNALRTSLAALEQIQTAKTQELNMLREQTTGLAAELQQQQAEYEDLMGQKDDLNSQLQESLRANSRLLEQLQEIGQEKEQLTQELQEARKSAEKRKAMLDELAMETLQEKSQHKEELGAVRLRHEKEVLGVRARYERELRELHEDKKRQEEELRGQIREEKARTRELETLQQTVEELQAQVHSMDGAKGWFERRLKEAEESLQQQQQEQEEALKQCREQHAAELKGKEEELQDVRDQLEQAQEERDCHLKTISSLKQEVKDTVDGQRILEKKGSAALKDLKRQLHLERKRADKLQERLQDILTNSKSRSGLEELVLSEMNSPSRTQTGDSSSISSFSYREILREKESSAVPARSLSSSPQAQPPRPAELSDEEVAELFQRLAETQQEKWMLEEKVKHLEVSSASMAEDLCRKSAIIETYVMDSRIDVSVAAGHTDRSGLGSVLRDLVKPGDENLREMNKKLQNMLEEQLTKNMHLHKDMEVLSQEIVRLSKECVGPPDPDLEPGETS |  |  | binding [5]: binds
10 | TBC1D8 (protein, UniProt O95759 1-1140) MWLKPEEVLLKNALKLWVTQKSSCYFILQRRRGHGEGGGRLTGRLVGALDAVLDSNARVAPFRILLQVPGSQVYSPIACGATLEEINQHWDWLEQNLLHTLSVFDNKDDIASFVKGKVKALIAEETSSRLAEQEEEPEKFREALVKFEARFNFPEAEKLVTYYSCCCWKGRVPRQGWLYLSINHLCFYSFFLGKELKLVVPWVDIQKLERTSNVFLTDTIRITTQNKERDFSMFLNLDEVFKVMEQLADVTLRRLLDNEVFDLDPDLQEPSQITKRDLEARAQNEFFRAFFRLPRKEKLHAVVDCSLWTPFSRCHTTGRMFASDSYICFASREDGCCKIILPLREVVSIEKMEDTSLLPHPIIVSIRSKVAFQFIELRDRDSLVEALLARLKQVHANHPVHYDTSADDDMASLVFHSTSMCSDHRFGDLEMMSSQNSEESEKEKSPLMHPDALVTAFQQSGSQSPDSRMSREQIKISLWNDHFVEYGRTVCMFRTEKIRKLVAMGIPESLRGRLWLLFSDAVTDLASHPGYYGNLVEESLGKCCLVTEEIERDLHRSLPEHPAFQNETGIAALRRVLTAYAHRNPKIGYCQSMNILTSVLLLYTKEEEAFWLLVAVCERMLPDYFNHRVIGAQVDQSVFEELIKGHLPELAEHMNDLSALASVSLSWFLTLFLSIMPLESAVNVVDCFFYDGIKAIFQLGLAVLEANAEDLCSSKDDGQALMILSRFLDHIKNEDSPGPPVGSHHAFFSDDQEPYPVTDISDLIRDSYEKFGDQSVEQIEHLRYKHRIRVLQGHEDTTKQNVLRVVIPEVSILPEDLEELYDLFKREHMMSCYWEQPRPMASRHDPSRPYAEQYRIDARQFAHLFQLVSPWTCGAHTEILAERTFRLLDDNMDQLIEFKAFVSCLDIMYNGEMNEKIKLLYRLHIPPALTENDRDSQSPLRNPLLSTSRPLVFGKPNGDAVDYQKQLKQMIKDLAKEKDKTEKELPKMSQREFIQFCKTLYSMFHEDPEENDLYQAIATVTTLLLQIGEVGQRGSSSGSCSQECGEELRASAPSPEDSVFADTGKTPQDSQAFPEAAERDWTVSLEHILASLLTEQSLVNFFEKPLDMKSKLENAKINQYNLKTFEMSHQSQSELKLSNL |  |  | binding [5]: binds
11 | AP1B1 (protein, UniProt Q10567 1-949) MTDSKYFTTTKKGEIFELKAELNSDKKEKKKEAVKKVIASMTVGKDVSALFPDVVNCMQTDNLELKKLVYLYLMNYAKSQPDMAIMAVNTFVKDCEDPNPLIRALAVRTMGCIRVDKITEYLCEPLRKCLKDEDPYVRKTAAVCVAKLHDINAQLVEDQGFLDTLKDLISDSNPMVVANAVAALSEIAESHPSSNLLDLNPQSINKLLTALNECTEWGQIFILDCLANYMPKDDREAQSICERVTPRLSHANSAVVLSAVKVLMKFMEMLSKDLDYYGTLLKKLAPPLVTLLSAEPELQYVALRNINLIVQKRPEILKHEMKVFFVKYNDPIYVKLEKLDIMIRLASQANIAQVLAELKEYATEVDVDFVRKAVRAIGRCAIKVEQSAERCVSTLLDLIQTKVNYVVQEAIVVIKDIFRKYPNKYESVIATLCENLDSLDEPEARAAMIWIVGEYAERIDNADELLESFLEGFHDESTQVQLQLLTAIVKLFLKKPTETQELVQQVLSLATQDSDNPDLRDRGYIYWRLLSTDPVAAKEVVLAEKPLISEETDLIEPTLLDELICYIGTLASVYHKPPSAFVEGGRGVVHKSLPPRTASSESAESPETAPTGAPPGEQPDVIPAQGDLLGDLLNLDLGPPVSGPPLATSSVQMGAVDLLGGGLDSLMGDEPEGIGGTNFVAPPTAAVPANLGAPIGSGLSDLFDLTSGVGTLSGSYVAPKAVWLPAMKAKGLEISGTFTRQVGSISMDLQLTNKALQVMTDFAIQFNRNSFGLAPAAPLQVHAPLSPNQTVEISLPLSTVGSVMKMEPLNNLQVAVKNNIDVFYFSTLYPLHILFVEDGKMDRQMFLATWKDIPNENEAQFQIRDCPLNAEAASSKLQSSNIFTVAKRNVEGQDMLYQSLKLTNGIWVLAELRIQPGNPSCTDLELSLKCRAPEVSQHVYQAYETILKN |  |  | binding [5]: binds

More lines, main results first:

Row | binding [1] | binding [2] | Molecule | also measured
12 | binds | binds | RabGAP1L (from UniProt Q5R372 1-815) | 
13 | binds | binds | EXOC3 (from UniProt O60645 1-745) | 
14 |  | binds | SNX3 (from UniProt O60493 1-162) | 
15 | binds | binds | VAMP2 (from UniProt P63027 1-116) | 
16 | binds |  | SNAP23 (from UniProt O00161 1-211) | 
17 | binds | binds | Arl13b (from UniProt Q3SXY8 1-428) | 
18 | binds |  | DENND4C (from UniProt Q5VZ89 1-1909) | 
